The record followed here is patent US20180073027.

Amino acid sequences for entries named in this document (tags omitted). Residues count along the entry.
UniProt P10721, 26-976: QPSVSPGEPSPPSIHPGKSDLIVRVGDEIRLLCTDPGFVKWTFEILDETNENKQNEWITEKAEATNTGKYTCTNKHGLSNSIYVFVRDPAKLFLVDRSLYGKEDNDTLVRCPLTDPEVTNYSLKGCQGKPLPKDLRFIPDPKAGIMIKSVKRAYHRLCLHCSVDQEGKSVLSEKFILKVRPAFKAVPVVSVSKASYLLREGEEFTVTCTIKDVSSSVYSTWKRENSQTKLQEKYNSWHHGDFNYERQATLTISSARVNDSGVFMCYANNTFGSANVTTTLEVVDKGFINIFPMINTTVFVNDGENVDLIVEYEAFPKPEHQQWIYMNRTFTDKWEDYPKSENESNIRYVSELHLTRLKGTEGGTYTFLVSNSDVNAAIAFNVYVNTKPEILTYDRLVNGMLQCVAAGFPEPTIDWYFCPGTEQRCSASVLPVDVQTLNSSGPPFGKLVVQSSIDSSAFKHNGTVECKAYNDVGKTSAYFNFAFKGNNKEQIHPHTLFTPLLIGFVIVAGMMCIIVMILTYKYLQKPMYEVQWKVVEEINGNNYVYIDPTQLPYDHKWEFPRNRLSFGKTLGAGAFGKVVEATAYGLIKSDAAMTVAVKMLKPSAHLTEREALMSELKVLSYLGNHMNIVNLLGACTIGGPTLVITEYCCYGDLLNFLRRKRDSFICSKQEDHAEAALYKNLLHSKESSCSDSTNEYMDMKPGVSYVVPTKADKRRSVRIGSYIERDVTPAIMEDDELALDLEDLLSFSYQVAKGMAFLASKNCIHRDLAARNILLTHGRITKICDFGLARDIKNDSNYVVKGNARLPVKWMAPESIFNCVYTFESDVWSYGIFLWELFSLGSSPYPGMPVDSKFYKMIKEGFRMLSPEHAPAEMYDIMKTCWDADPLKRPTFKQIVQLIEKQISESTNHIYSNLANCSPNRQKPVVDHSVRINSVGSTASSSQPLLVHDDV

Construct, isoform or probe ends are uncertain for at least one entry. At least one result comes from cells or an extract, where the contact may be indirect. For some of these results: The comparison behind a weaker result is the experiment's own reference, which may not be listed here.

The target of data set [1] is CD117 (KIT, c-Kit) (UniProt P10721). The data set is described as follows: flow cytometry. As to conditions: HEL cells; only range for truncated forms given in text; protein on the cell surface; label: Cy3; single-stranded DNA; variant of CD117 aptamer #1F (full length).
For data set [2] the target is unchanged. The data set can be described thus: pull-down. As to conditions: 100 nM aptamer, streptavidin beads, anti-CD117 western blot; CD117 (P10721) confirmed by mass spectrometry; protein in an extract; protein details: endogenous, HEL whole-cell lysate; label: biotin; single-stranded DNA; variant of CD117 aptamer #1F (full length). (In general: Immunoblotting shows a protein as a band on a membrane.)

For the sequence “GAGGCATACCAGCTTATTCAAGGGGCCGGGGCAAGGGGGGGGTACCGTGGTAGGAC [#1-3' Del]”, the binding result in data set [1] is on record as “binds more weakly”.

Consider “GAGGCATACCAGCTTATTCAAGGGGCCGGGGCAAGGGGGGGGTACCGTGGTAGGACATAGTAAGTGCAATCTGCGAA [CD117 aptamer #1F, biotin-labeled]”, for which the binding result in data set [2] is “binds”.

For the sequence “GGGGCCGGGGCAAGGGGGGGGTACCGTGGTAGGAC [#1-35 Core]”, in data set [1], the binding result is reported as “binds more weakly”.

For “GGGGCCGGGGCAAGGGGGGGGTACCGTGGTAGGACATAGTAAGTGCAATCTGCGAA [#1-5' Del]”, the binding result in data set [1] is “binds more weakly”.
